Consider two molecules from article PMC9445010.

No constants are given. Whether binding was seen depends on the method and setting. Some results given as binding are weak or reduced against the parent protein; the word gives no strength.

For this experiment, the target named is T1, PmoB (Methylococcus capsulatus (Bath) (endogenous in M. capsulatus (Bath))) (UniProt G1UBD1).
T1 sequence: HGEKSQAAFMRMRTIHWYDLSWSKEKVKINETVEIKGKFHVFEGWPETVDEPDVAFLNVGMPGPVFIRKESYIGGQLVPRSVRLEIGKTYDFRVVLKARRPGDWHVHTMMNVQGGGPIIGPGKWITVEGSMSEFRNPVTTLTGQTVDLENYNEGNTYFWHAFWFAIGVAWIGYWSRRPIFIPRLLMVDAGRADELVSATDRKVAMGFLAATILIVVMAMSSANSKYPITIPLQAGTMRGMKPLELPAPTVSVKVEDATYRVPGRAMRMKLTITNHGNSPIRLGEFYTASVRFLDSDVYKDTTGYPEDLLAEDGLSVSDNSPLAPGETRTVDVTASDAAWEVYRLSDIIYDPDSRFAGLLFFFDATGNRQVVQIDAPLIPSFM
The experiment is described as follows: cryo-EM structure; cryoET with subtomogram averaging of isolated M. capsulatus (Bath) membranes, no detergent; 25 mM PIPES pH 7.3, 250 mM NaCl; single trimer 4.8 Å, 7-particle unit 10 Å, three trimers 12 Å; 3-fold symmetry applied.

B1: PmoB (protein, UniProt G1UBD1 33-414)
chain: T1 sequence
With B1, the binding result is “binds”.

B2: PmoA (protein, UniProt Q607G3 1-247)
chain: MSAAQSAVRSHAEAVQVSRTIDWMALFVVFFVIVGSYHIHAMLTMGDWDFWSDWKDRRLWVTVTPIVLVTFPAAVQSYLWERYRLPWGATVCVLGLLLGEWINRYFNFWGWTYFPINFVFPASLVPGAIILDTVLMLSGSYLFTAIVGAMGWGLIFYPGNWPIIAPLHVPVEYNGMLMSIADIQGYNYVRTGTPEYIRMVEKGTLRTFGKDVAPVSAFFSAFMSILIYFMWHFIGRWFSNERFLQST
As for B2, the binding entry was “binds”.
